From a melanoma drug combination screen (doi:10.1371/journal.pone.0140310); values rounded.

All values are for the listed drug together with etoposide (0.02 µM): COc1cc([C@@H]2c3cc4c(cc3[C@@H](O[C@@H]3O[C@@H]5CO[C@@H](C)O[C@H]5[C@H](O)[C@H]3O)[C@H]3COC(=O)[C@H]23)OCO4)cc(OC)c1O

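Human melanoma cells were exposed to a pair of drugs for 72 h in 1,536-well plates and read by automated microscopy after fixing and staining. The read-out is cell count (nuclei) in % of the DMSO control; lower values mean stronger growth inhibition or killing. Every drug was used at one fixed concentration, the lower of two screened (a fifth of the higher). The file gives one value for each pair and line, without errors, so small differences may be noise.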
Only some of the drugs and lines screened are listed, without regard to their results.

Partner,COLO 800
CS(=O)(=O)CCNCc1ccc(-c2ccc3ncnc(Nc4ccc(OCc5cccc(F)c5)c(Cl)c4)c3c2)o1 at 0.8 µM,117
CCN(CC)CCCCNc1ncc2cc(-c3cc(OC)cc(OC)c3)c(NC(=O)NC(C)(C)C)nc2n1 at 0.1 µM,67.8
NCC(=O)Nc1ccc(-n2nc(C(F)(F)F)cc2-c2ccc3c(ccc4ccccc43)c2)cc1 at 1 µM,99.7
CN1CCN(c2ccc3nc(-c4c(N)c5c(F)cccc5[nH]c4=O)[nH]c3c2)CC1 at 0.1 µM,90.3
Cc1cn(-c2cc(NC(=O)c3ccc(C)c(Nc4nccc(-c5cccnc5)n4)c3)cc(C(F)(F)F)c2)cn1 at 0.2 µM,71.0
O=c1cc(-c2cccc3c2Sc2ccccc2S3)oc(N2CCOCC2)c1 at 1 µM,66.3
COc1ccc(-c2ccc3c(N4CCOCC4)nc(N4C[C@@H](C)O[C@@H](C)C4)nc3n2)cc1CO at 0.02 µM,86.5
CCCCCCCCCCCCCCCCCCOP(=O)([O-])OC1CC[N+](C)(C)CC1 at 0.4 µM,81.5
CC(=O)O[C@@]12CO[C@@H]1C[C@H](O)[C@@]1(C)C(=O)[C@H](O)C3=C(C)[C@@H](OC(=O)[C@H](O)[C@@H](NC(=O)OC(C)(C)C)c4ccccc4)C[C@@](O)([C@@H](OC(=O)c4ccccc4)[C@H]21)C3(C)C at 0.0001 µM,113
Nc1cccc2c1CN(C1CCC(=O)NC1=O)C2=O (centres unmarked) at 1 µM,66.5
COc1cc2c(Oc3ccc4[nH]c(C)cc4c3F)ncnc2cc1OCCCN1CCCC1 at 0.4 µM,78.9
Cc1ccc(NC(=O)c2cccc(N(C)C)c2)cc1NC(=O)c1ccc(O)cc1 at 2 µM,108
CNC(=O)c1cc(Oc2ccc(NC(=O)Nc3ccc(Cl)c(C(F)(F)F)c3)cc2)ccn1 at 0.4 µM,168
CCCS(=O)(=O)Nc1ccc(F)c(C(=O)c2c[nH]c3ncc(Cl)cc23)c1F at 0.08 µM,113
CC[C@]1(O)C[C@H]2CN(CCc3c([nH]c4ccccc34)[C@@](C(=O)OC)(c3cc4c(cc3OC)N(C=O)[C@H]3[C@@](O)(C(=O)OC)[C@H](OC(C)=O)[C@]5(CC)C=CCN6CC[C@]43[C@@H]65)C2)C1 at 0.0001 µM,130
OCCn1cc(-c2cnc3nnn(Cc4ccc5ncccc5c4)c3n2)cn1 at 1 µM,71.7
Oc1cc(-c2nc(-c3ccccc3)[nH]c2-c2ccncc2)ccc1Cl at 0.2 µM,70.1
COc1cc(Nc2ncc(F)c(Nc3ccc4c(n3)NC(=O)C(C)(C)O4)n2)cc(OC)c1OC at 0.4 µM,99.5
COCC[n+]1c2c(n(Cc3cnccn3)c1C)C(=O)c1ccccc1C2=O at 0.0004 µM,116
CC(C)(C)c1cnc(CSc2cnc(NC(=O)C3CCNCC3)s2)o1 at 0.01 µM,87.9
Nc1ccn([C@@H]2O[C@H](CO)[C@@H](O)C2(F)F)c(=O)n1 at 0.0004 µM,76.3
Cc1cc(N2CCOCC2)cc2[nH]c(-c3c(NC[C@@H](O)c4cccc(Cl)c4)cc[nH]c3=O)nc12 at 0.2 µM,77.0